# For at least one compound, name, drawing or mass did not settle the structure.
# Amino acid sequences for entries named in this document (tags omitted).
# UniProt P13569, whole entry: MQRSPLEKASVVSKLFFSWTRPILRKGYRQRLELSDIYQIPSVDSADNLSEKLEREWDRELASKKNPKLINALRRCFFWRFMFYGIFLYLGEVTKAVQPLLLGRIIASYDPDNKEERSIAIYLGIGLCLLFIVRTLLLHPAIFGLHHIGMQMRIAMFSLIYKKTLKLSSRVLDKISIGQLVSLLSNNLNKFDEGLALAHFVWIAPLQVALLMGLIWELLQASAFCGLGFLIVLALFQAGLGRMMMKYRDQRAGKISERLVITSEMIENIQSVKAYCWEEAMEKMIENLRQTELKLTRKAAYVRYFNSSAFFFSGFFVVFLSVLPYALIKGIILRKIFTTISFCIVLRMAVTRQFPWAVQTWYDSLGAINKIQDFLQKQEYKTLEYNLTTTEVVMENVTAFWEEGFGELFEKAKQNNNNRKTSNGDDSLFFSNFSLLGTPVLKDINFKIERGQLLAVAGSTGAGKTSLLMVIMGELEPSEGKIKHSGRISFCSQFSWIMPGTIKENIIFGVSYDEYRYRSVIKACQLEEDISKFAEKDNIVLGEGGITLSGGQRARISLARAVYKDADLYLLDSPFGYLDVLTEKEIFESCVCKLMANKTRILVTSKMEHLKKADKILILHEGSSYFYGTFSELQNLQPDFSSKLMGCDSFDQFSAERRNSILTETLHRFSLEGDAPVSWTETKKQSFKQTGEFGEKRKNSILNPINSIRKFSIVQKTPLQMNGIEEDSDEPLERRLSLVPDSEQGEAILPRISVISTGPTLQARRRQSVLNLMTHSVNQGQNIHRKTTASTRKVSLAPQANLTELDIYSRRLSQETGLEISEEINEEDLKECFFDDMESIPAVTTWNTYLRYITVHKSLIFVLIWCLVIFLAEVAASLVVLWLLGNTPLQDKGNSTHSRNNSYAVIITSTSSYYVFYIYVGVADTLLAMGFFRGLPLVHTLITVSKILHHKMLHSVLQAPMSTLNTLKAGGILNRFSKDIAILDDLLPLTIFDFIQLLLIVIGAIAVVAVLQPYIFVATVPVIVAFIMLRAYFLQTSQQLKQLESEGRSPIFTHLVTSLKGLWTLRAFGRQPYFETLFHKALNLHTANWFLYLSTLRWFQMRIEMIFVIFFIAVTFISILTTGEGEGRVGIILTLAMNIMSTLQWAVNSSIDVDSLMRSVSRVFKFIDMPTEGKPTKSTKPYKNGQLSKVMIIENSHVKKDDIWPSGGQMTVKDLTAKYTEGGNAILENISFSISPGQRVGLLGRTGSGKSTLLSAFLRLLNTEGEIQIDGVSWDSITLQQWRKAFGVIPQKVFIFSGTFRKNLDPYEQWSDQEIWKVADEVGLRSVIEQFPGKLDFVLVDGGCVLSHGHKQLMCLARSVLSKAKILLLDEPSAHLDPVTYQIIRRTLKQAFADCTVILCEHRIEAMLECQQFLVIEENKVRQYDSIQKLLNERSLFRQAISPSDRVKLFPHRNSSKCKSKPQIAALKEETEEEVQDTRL
# Key:
# CFTR channel [1] = molecular target: T1, CFTR channel (Homo sapiens, UniProt P13569); assay: whole-cell patch-clamp in CHO-CFTR(+) cells; format: cell-based; parameters: expressed in transfected cells; host or cells: CHO (Chinese hamster ovary) cells, CHO-CFTR(+)
# Excerpt: The patch-clamp technique consists in applying a glass pipette or a glass microelectrode to the surface of the cell. By applying slight touch, it is possible to cause the membrane to adhere to the glass. A small piece of membrane (patch) is thus isolated at the end of the pipette. This is the principle of patch-clamp (O. P. Hamill et al., Pflügers Arch., 1981, 391, 85-100; R. Penner, A Practical Guide to Patch Clamping, 1995, In Single Channel Recording, 2nd edition (Eds. B. Sakmann et al.) Plenum Press, New York, 3-30). To do this, the patch-clamp pipette must have a tip of the order of 1 μm in diameter and a resistance of the order of 1-5 MΩ. The resistance of a pipette or of a microelectrode makes it possible to assess the fineness of the tip: the greater the resistance, the finer the tip or the more the electrode is blocked. […] The quality of this interaction (or sealing) is also assessed by measuring the resistance between the glass and the membrane. […]
# More specifically, culture dishes (cell support) are placed in an experimentation cell (volume 1 ml) on the platform of an inverted microscope (Nikon) equipped with phase-contrast lighting. […] The currents are amplified with an Axopatch 200B amplifier (Axon Instrument Ltd) having a 2-5 kHz low-pass filter (Bessel 6-pole filter), and recorded on the hard disk of a PC after digitization at 10-25 kHz. […]
# CHO-CFTR(-) cells = assay: 125I iodide efflux in CHO-CFTR(-) control cells that do not express CFTR; format: cell-based, Chinese hamster; conditions: octan-1-ol 0.1 to 5 mM, FSK 5 μM, A23187 2 μM
# intracellular cAMP level = assay: total intracellular cAMP assay in CHO-CFTR(+) cells; format: cell-based, Chinese hamster; conditions: 5 min, FSK 1 or 5 μM, alcohols 1 mM
# Procedure: The CHO cells are cultured for four days in a 24-well culture plate. On the fourth day of culture, each well is rinsed twice with 500 μl of medium B, and 500 μl of this buffer containing the molecule to be tested are added to each well. After incubation at 37° C. for 5 min, the reaction is stopped by adding a cell lysis buffer. The cell lysis is verified with Trypan blue. The amount of cAMP contained in the cells is determined using the Enzyme Immuno Assay kit (Amersham Biotechnology). The cAMP level is expressed in pmol/well ±SD.
# CFTR channel [2] = molecular target: T1, CFTR channel; assay: 125I radioactive iodide efflux in CHO-CFTR(+) cells; format: cell-based; parameters: expressed in transfected cells; host or cells: CHO (Chinese hamster ovary) cells, CHO-CFTR(+); conditions: n-alkanols 1 mM, FSK 1 μM, A23187 2 μM, α-GA 10 and 100 μM
# Procedure: The cells are cultured in 24-well plates with a dilution to 1/10 after passage. […] The operation is repeated every 30 s for 2 to 6 min. […] All the samples are counted in a gamma counter (Kontron). The precipitated proteins are solubilized in 0.1N NaOH and quantified using a calorimetric test.
# The tracer contained in the cell layer at the beginning of the efflux is calculated as the sum of the samples and of the extracts counted. The efflux curves are constructed by expressing the percentage of the content remaining in the cell layer (I %) with respect to time. The stimulated or nonstimulated efflux rate constants (k, min^−1) are determined by smoothing the efflux curves to a monoexponential function I %=100*exp(−kt) using a linear regression of the neperian logarithm of the data, k is used to calculate the iodide released into the medium with respect to time. […] Finally, ks calculated as kt−kb is used to establish a dose-response relationship for antagonists. The data is expressed as means ±SD, and the t-test is used to determine the significances. […] Y begins at the basal level and progresses to the plateau (Ymax), X is the concentration and the half-effect values (EC are calculated using GraphPad Prism v3.0 (GraphPad software)).
# [3] = molecular target: T2, human CFTR channel endogenously expressed in Calu-3 (Homo sapiens, UniProt P13569); assay: iodide efflux in Calu-3 human bronchial epithelial cells; format: cell-based; conditions: octan-1-ol 0.1 to 10 mM; FSK 1 μM
# T2 construct: human pulmonary epithelial cells endogenously expressing the CFTR channel; host or cells: Calu-3 human pulmonary epithelial cells
# Procedure: The CFTR studies are also carried out on Calu-3 cells (ATCC No. HTB-55), which are human pulmonary epithelial cells endogenously expressing the CFTR channel. These cells are cultured under the same culture conditions as the CHO cells. The study of the mutated CFTR channel is carried out on JME/CF15 cells, which are epithelial cells extracted from respiratory airways of patients suffering from cystic fibrosis (homozygous ΔF508) (Jefferson et al., 1990). These cells therefore express the ΔF508 mutated CFTR channel. […]
# This technique makes it possible to follow the kinetics of exit of the ^125I radioactive iodide. […] The kinetics of exit of ^125I are determined after having eliminated the loading solution and washed the wells 4 times with 500 μl of medium B. For the ^125I exit kinetics, 500 μl of medium B containing or not containing the molecules to be tested are incubated for 30 sec in the wells and recovered in a hemolysis tube, so as to be replaced with 500 μl of medium B containing or not containing the molecules to be tested. […] All the samples are counted in a gamma counter (Kontron). The precipitated proteins are solubilized in 0.1N NaOH and quantified using a calorimetric test.
# The tracer contained in the cell layer at the beginning of the efflux is calculated as the sum of the samples and of the extracts counted. […]
smiles,measurement,setting,value
"C=C[C@@]1(C)CC(=O)[C@]2(O)[C@@]3(C)[C@@H](O)CCC(C)(C)[C@@H]3[C@H](O)[C@H](OC(C)=O)[C@@]2(C)O1 [FSK, forskolin, reference compound]",increase in membrane conductance compared with the control,"CFTR channel [1]; FSK 1 μM, octan-1-ol 1 mM",approximately 10 fold
same,reversion potential of the induced current,CFTR channel [1]; FSK- or octan-1-ol-induced current,1±0.6 mV
same,effect on basal level of 125I efflux in cells not expressing CFTR,CHO-CFTR(-) cells,do not significantly modify the basal level
same,effect on intracellular cAMP level,intracellular cAMP level,significantly increases the cAMP level
same,"activation of CFTR (125I efflux), in words",CFTR channel [2],activation of CFTR
same,"activation of iodide efflux in Calu-3 cells, in words",[3],shifts to the left the dose-response curve for octan-1-ol
